{
  "source": "patent US8420595B2",
  "about": "“Methods for treating acute acoustic trauma” (Oklahoma Medical Research Foundation, priority 2006, dated 2013)",
  "tested_on": "noise-induced threshold shift (narrow band noise centered at 13.6 kHz, 105 dB SPL for 80 minutes)",
  "test": "Noise-induced ABR threshold shift in rats",
  "assay_type": "in vivo, Male Sprague-Dawley rats",
  "conditions": "NAC 200 mg/kg and/or ALCAR 100 mg/kg i.p., three weeks after noise exposure",
  "note": "Some entries share one result that the patent states for a list of compounds.",
  "data": [
    {"smiles": "CC(=O)N[C@@H](CS)C(=O)O", "note": "[NAC, N-acetylcysteine]", "values": [
      {"measurement": "p (t-test) vs noise only control, average threshold shift from all frequencies", "value": "< 0.001"}
    ]}
  ]
}
